{"source": "patent US8076285B2", "about": "(Aicuris GmbH & Co. KG, priority 2006, dated 2011)", "assay": "general procedure: Fmoc solid-phase peptide synthesis; 2-chlorotrityl chloride resin (Iris Biotech), 0.85 mmol/g; TBTU/DIEA", "key": {"[1]": {"conditions": "coupling step, trifluoroacetate"}, "[2]": {"conditions": "late stage modification step, trifluoroacetate"}, "[3]": {"conditions": "late stage modification step, bistrifluoroacetate"}, "[4]": {"conditions": "cyclisation step, trifluoroacetate"}}}
{"substance": "{(3R)-N-[(Benzyloxy)carbonyl]-3-[(tert-butoxycarbonyl)amino]-4-(dimethylamino-phenyl)-L-alanyl}-[(3R)-3-hydroxy-L-leucyl]-L-leucyl-D-arginyl-L-isoleucyl-L-allothreonyl-glycyl-[(3S)-3-hydroxy-L-asparaginyl]-L-serine bistrifluoroacetate", "values": [{"measurement": "step yield", "setting": "[1]", "result": "92% of theory"}]}
{"substance": "[3-tert-Butyl-D-alanyl]-[3-tert-butyl-L-alanyl]-[(3R)-3-amino-L-phenylalanyl]-[(3R)-3-hydroxy-L-leucyl]-L-leucyl-D-ornithyl-L-isoleucyl-L-allothreonyl-glycyl-L-seryl-L-serine C^1.11-N^3.3-lactam", "values": [{"measurement": "step yield", "setting": "late stage modification step, from compound 451A, trifluoroacetate", "result": "25% of theory"}]}
{"substance": "[3-tert-Butyl-D-alanyl]-[3-tert-butyl-L-alanyl]-[(3R)-3-amino-L-phenylalanyl]-[(3R)-3-hydroxy-L-leucyl]-L-leucyl-D-arginyl-L-isoleucyl-L-allothreonyl-D-seryl-L-seryl-L-serine C^1.11-N^3.3-lactam", "values": [{"measurement": "step yield", "setting": "late stage modification step, from compound 448A, trifluoroacetate", "result": "33% of theory"}]}
{"substance": "[3-tert-Butyl-D-alanyl]-[3-tert-butyl-L-alanyl]-[(3R)-3-amino-O-methyl-L-tyrosyl]-[(3R)-3-hydroxy-L-leucyl]-L-leucyl-D-arginyl-L-isoleucyl-L-allothreonyl-glycyl-[(3S)-3-hydroxy-L-asparaginyl]-L-serine C^1.11-N^3.3-lactam bistrifluoroacetate", "values": [{"measurement": "step yield", "setting": "[2]", "result": "75% of theory"}]}
{"substance": "[(3R)-3-Amino-L-phenylalanyl]-[(3R)-3-hydroxy-L-leucyl]-L-leucyl-D-L-arginyl-isoleucyl-L-seryl-glycyl-L-seryl-L-serine C^1.9-N^3.1-lactam bishydrochloride", "values": [{"measurement": "step yield", "setting": "late stage modification step, of theory from 387A, trifluoroacetate", "result": "98% of theory"}]}
{"substance": "[(3R)-N^2-(Benzyloxycarbonyl)-3-amino-L-phenylalanyl]-[(3R)-3-hydroxy-L-leucyl]-[3-tertbutyl-L-alanyl]-D-arginyl-L-isoleucyl-L-allothreonyl-glycyl-L-seryl-L-serine bistrifluoroacetate", "values": [{"measurement": "step yield", "setting": "[2]", "result": "99% of theory"}]}
{"substance": "[(3R)-3-Amino-L-phenylalanyl]-[(3R)-3-hydroxy-L-leucyl]-[3-tertbutyl-L-alanyl]-D-arginyl-L-isoleucyl-L-allothreonyl-glycyl-L-seryl-L-serine C^1.9-N^3.1-lactam bishydrochloride", "values": [{"measurement": "step yield", "setting": "late stage modification step, of theory from 385A, trifluoroacetate", "result": "63% of theory"}]}
{"substance": "[(3R)-N^2-(Benzyloxycarbonyl)-3-amino-L-phenylalanyl]-[(3R)-3-hydroxy-L-leucyl]-L-leucyl-D-arginyl-L-phenylalanlyl-L-allothreonyl-glycyl-L-seryl-L-serine bistrifluoroacetate", "values": [{"measurement": "step yield", "setting": "[2]", "result": "59% of theory"}]}
{"substance": "[(3R)-3-Amino-L-phenylalanyl]-[(3R)-3-hydroxy-L-leucyl]-L-leucyl-D-arginyl-L-isoleucyl-L-valyl-glycyl-L-seryl-L-serine C^1.9-N^3.1-lactam bishydrochloride", "values": [{"measurement": "step yield", "setting": "late stage modification step, of theory from 398A, trifluoroacetate", "result": "83% of theory"}]}
{"substance": "[3-tert-Butyl-D-alanyl]-[3-tert-butyl-L-alanyl]-[(3R)-3-amino-L-phenylalanyl]-[(3R)-3-hydroxy-L-leucyl]-L-leucyl-D-arginyl-L-valyl-L-allothreonyl-glycyl-L-seryl-L-serine C^1.11-N^3.3-lactam", "values": [{"measurement": "step yield", "setting": "late stage modification step, from compound 437A, trifluoroacetate", "result": "44% of theory"}]}
{"substance": "[(3R)-N^2-(tert-Butoxycarbonyl)-3-hydroxy-L-leucyl]-L-leucyl-D-arginyl-L-isoleucyl-L-allothreonyl-glycyl-[(3S)-3-hydroxy-L-asparaginyl]-L-alanine trifluoroacetate", "values": [{"measurement": "step yield", "setting": "[2]", "result": "98% of theory"}]}
{"substance": "[(3R)-N^2-(Benzyloxycarbonyl)-3-{(tert-butoxycarbonyl)amino}-L-phenylalanyl]-[(3R)-3-hydroxy-L-leucyl]-L-leucyl-D-arginyl-L-isoleucyl-L valyl-glycyl-L-seryl-L-serine trifluoroacetate", "values": [{"measurement": "step yield", "setting": "[1]", "result": "24% of theory"}]}
{"substance": "[(3R)-N^2-(Benzyloxycarbonyl)-3-{(tert-butoxycarbonyl)amino}-L-phenylalanyl]-[(3R)-3-hydroxy-L-leucyl]-L-norleucyl-D-arginyl-L-isoleucyl-L-allothreonyl-glycyl-L-alanyl-L-serine trifluoroacetate", "values": [{"measurement": "step yield", "setting": "[1]", "result": "25% of theory"}]}
{"substance": "[(3R)-3-Hydroxy-L-leucyl]-L-valyl-D-arginyl-L isoleucyl-L-allothreonyl-glycyl-L-seryl-L-serine bistrifluoroacetate", "values": [{"measurement": "final purity (method not given)", "setting": "[2]", "result": 50, "unit": "% pure"}]}
{"substance": "[(3R)-N^2-(Benzyloxycarbonyl)-3-amino-L-phenylalanyl]-[(3R)-3-hydroxy-L-leucyl]-(3-trimethylsilyl-L-alanyl)-D-arginyl-L-isoleucyl-L-allothreonyl-glycyl-L-seryl-L-serine bistrifluoroacetate", "values": [{"measurement": "step yield", "setting": "[2]", "result": "97% of theory"}]}
{"substance": "[(3R)-3-Amino-L-phenylalanyl]-L-threonyl-L-leucyl-D-arginyl-L-isoleucyl-L-allothreonyl-glycyl-L-seryl C^1.9-N^3.1-lactam bishydrochloride", "values": [{"measurement": "step yield", "setting": "late stage modification step, of theory from 384A, trifluoroacetate", "result": "86% of theory"}]}
{"substance": "[(3R)-3-Hydroxy-L-leucyl]-L-leucyl-D-arginyl-L-isoleucyl-L-allothreonyl-glycyl-[(2S)-2-amino-3-(9H-fluoren-9-ylmethoxycarbonyl)aminobutyryl]-L-serine bistrifluoroacetate", "values": [{"measurement": "step yield", "setting": "late stage modification step, from 701 mg (0.50 mmol) of 288A, trifluoroacetate", "result": "98% of theory"}]}
{"substance": "{(3R)-N^2-[(9H-Fluoren-9-ylmethoxy)carbonyl]-3-[(tert-butoxycarbonyl)amino]-L-phenylalanyl}-[(3R)-3-hydroxy-L-leucyl]-L-leucyl-[(2R)-2-amino-4-benzyloxycarbonylaminobutyryl]-L-isoleucyl-L-allothreonyl-glycyl-L-seryl-L-serine trifluoroacetate", "values": [{"measurement": "final purity (method not given)", "setting": "[1]", "result": 60, "unit": "% pure"}, {"measurement": "step yield", "setting": "[1]", "result": "31% of theory"}]}
{"substance": "[(3R)-N^2-(Benzyloxycarbonyl)-3-{(tert-butoxycarbonyl)amino}-L-phenylalanyl]-[(3R)-3-hydroxy-L-leucyl]-L-leucyl-D-arginyl-L-isoleucyl-L-allothreonyl-glycyl-L-seryl-L-serine trifluoroacetate", "values": [{"measurement": "step yield", "setting": "[1]", "result": "59% of theory"}]}
{"substance": "[N^2-(Benzyloxycarbonyl)-3-tert-butyl-D-alanyl]-[3-tert-butyl-L-alanyl]-{(3R)-3-amino-L-phenylalanyl}-{(3R)-3-hydroxy-L-leucyl}-L-leucyl-D-arginyl-L-isoleucyl-L-allothreonyl-glycyl-L-asparaginyl-L-serine bistrifluoroacetate", "values": [{"measurement": "step yield", "setting": "[3]", "result": "85.8% of theory"}]}
{"substance": "Benzyl [(3R)-N^2-(tert-butoxycarbonyl)-3-hydroxy-L-leucyl]-L-leucyl-D-arginyl-L-isoleucyl-L-allothreonyl-glycyl-L-allothreonyl-L-serinate trifluoroacetate", "values": [{"measurement": "step yield", "setting": "[1]", "result": "93% of theory"}]}
{"substance": "[N^2-(tert.-Butoxycarbonyl)-3-tert-butyl-D-alanyl]-[3-tert-butyl-L-alanyl]-[(3R)-3-amino-L-phenylalanyl]-[(3R)-3-hydroxy-L-leucyl]-L-leucyl-D-arginyl-L-isoleucyl-L-allothreonyl-glycyl-L-asparaginyl-L-serine C^1.9-N^3.1-lactam hydrochloride", "values": [{"measurement": "step yield", "setting": "coupling step, hydrochloride", "result": "97% of theory"}]}
{"substance": "[(3R)-N^2-(Benzyloxycarbonyl)-3-amino-L-phenylalanyl]-[(3R)-3-hydroxy-L-leucyl]-L-leucyl-D-arginyl-L-isoleucyl-L-valyl-glycyl-L-seryl-L-serine C^1.9-N^3.1-lactam trifluoroacetate", "values": [{"measurement": "cyclisation yield", "setting": "cyclisation step, from 374A, trifluoroacetate", "result": "62% of theory"}]}
{"substance": "Benzyl [N^2-(tert-butoxycarbonyl)-L-leucyl]-D-arginyl-L-isoleucyl-L-allothreoninate trifluoroacetate", "values": [{"measurement": "step yield", "setting": "[1]", "result": "53% of theory"}]}
{"substance": "[(3R)-N^2-(Benzyloxycarbonyl)-3-{(tert-butoxycarbonyl)amino}-L-phenylalanyl]-[(3R)-3-hydroxy-L-leucyl]-(3-trimethylsilyl-L-alanyl)-D-arginyl-L-isoleucyl-L-allothreonyl-glycyl-L-seryl-L-serine trifluoroacetate", "values": [{"measurement": "step yield", "setting": "[1]", "result": "85% of theory"}]}
{"substance": "[(3R)-N^2-(Benzyloxycarbonyl)-3-{(tert-butoxycarbonyl)amino}-L-phenylalanyl]-[(3R)-3-hydroxy-L-leucyl]-L-leucyl-D-arginyl-L-isoleucyl-L-allothreonyl-glycyl-L-alanyl-L-serine trifluoroacetate", "values": [{"measurement": "step yield", "setting": "[1]", "result": "67% of theory"}]}
{"substance": "[(3R)-N^2-(Benzyloxycarbonyl)-3-amino-L-phenylalanyl]-[(3R)-3-hydroxy-L-leucyl]-L-leucyl-D-arginyl-L-isoleucyl-L-allothreonyl-glycyl-L-allothreonyl-L-aserinate C^1.9-N^3.1-lactam trifluoroacetate", "values": [{"measurement": "crude purity (method not given)", "setting": "[4]", "result": 75, "unit": "% pure"}, {"measurement": "cyclisation yield", "setting": "[4]", "result": "86% of theory"}]}
{"substance": "[N^2-(Benzyloxycarbonyl)-D-leucyl]-L-leucyl-[(3R)-3-amino-L-phenylalanyl]-[(3R)-3-hydroxy-L-leucyl]-L-leucyl-D-arginyl-L-isoleucyl-L-threonyl-glycyl-L-asparaginyl-L-serine bistrifluoroacetate", "values": [{"measurement": "step yield", "setting": "[3]", "result": "63.7% of theory"}]}
{"substance": "[(3R)-N^2-(Benzyloxycarbonyl)-3-{(tert-butoxycarbonyl)amino}-L-leucyl]-[(3R)-3-hydroxy-L-leucyl]-L-leucyl-D-arginyl-L-isoleucyl-L-allothreonyl-glycyl-[(3R)-3-hydroxy-L-asparaginyl]-L-serine trifluoroacetate", "values": [{"measurement": "step yield", "setting": "[1]", "result": "94% of theory"}]}
{"substance": "[3-tert-Butyl-D-alanyl]-[3-tert-butyl-L-alanyl]-[(3R)-3-amino-L-phenylalanyl]-L-threonyl-L-leucyl-D-arginyl-L-isoleucyl-L-allothreonyl-glycyl-L-serine C^1.11-N^3.3-lactam", "values": [{"measurement": "step yield", "setting": "late stage modification step, from compound 433A, trifluoroacetate", "result": "17% of theory"}]}
{"substance": "[(3R)-N^2-(Benzyloxycarbonyl)-3-amino-L-phenylalanyl]-[(3R)-3-hydroxy-L-leucyl]-L-leucyl-D-arginyl-L-isoleucyl-L-seryl-glycyl-L-seryl-L-serine bistrifluoroacetate", "values": [{"measurement": "crude purity (method not given)", "setting": "[2]", "result": 94, "unit": "% pure"}]}
